Measured values as given in the supplement of paper PMC12823440, “Inhibitors supercharge kinase turnover through native proteolytic circuits” (Nature, 2025).
Counter-ions that a name gives are not always drawn. This is one part of the list. Hit calls seldom repeat between salt and free forms of one compound.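 Kinases, fused to nanoluciferase, were expressed in K562 cells; luminescence was measured every 4 h from 2 to 18 h as percent of control (DMSO = 100%, positive control = 0%). A time point is decreased if signal falls significantly (2 sigma). Hits were called by the authors by a rule that is not shown; the count of time points alone does not decide it.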

Chains of the proteins cited; added tags and fusions are not shown.
UniProt P06241, whole entry, looked up: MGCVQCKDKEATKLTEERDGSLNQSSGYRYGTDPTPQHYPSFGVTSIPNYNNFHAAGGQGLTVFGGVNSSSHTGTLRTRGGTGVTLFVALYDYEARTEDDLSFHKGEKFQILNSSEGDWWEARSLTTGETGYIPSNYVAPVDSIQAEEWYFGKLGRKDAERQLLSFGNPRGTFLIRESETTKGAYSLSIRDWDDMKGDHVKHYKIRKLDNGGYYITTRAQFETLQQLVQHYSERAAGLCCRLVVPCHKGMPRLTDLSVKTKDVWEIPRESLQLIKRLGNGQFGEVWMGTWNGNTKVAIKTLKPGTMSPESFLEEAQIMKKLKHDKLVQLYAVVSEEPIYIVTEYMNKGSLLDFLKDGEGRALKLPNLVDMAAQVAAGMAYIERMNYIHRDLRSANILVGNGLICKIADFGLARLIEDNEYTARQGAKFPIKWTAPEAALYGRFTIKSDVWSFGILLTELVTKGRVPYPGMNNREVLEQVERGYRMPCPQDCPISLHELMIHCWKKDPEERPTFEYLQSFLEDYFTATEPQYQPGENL

Each compound was assayed against FYN (UniProt P06241) (assay: kinase-Nluc reporter destabilization hit call (1 = scored as downregulated) (binary); higher = compound decreases kinase abundance). Settings: K562; 2-18 h.

Question: Which “kinase-Nluc reporter destabilization hit call” value does the source give for `Cc1[nH]c(/C=C2\C(=O)Nc3ccccc32)c(C)c1CCC(=O)O` [(Z)-Orantinib] (10 µM) here?
Answer: inactive: 0

Question: How did the “kinase-Nluc reporter destabilization hit call” value turn out when `NC(=O)c1ccc(-c2nc(-c3ccc4c(c3)OCCO4)c(-c3ccccn3)[nH]2)cc1` (10 µM) was run?
Answer: active: 1

Question: `CCNc1nc(Nc2cc(F)c(C(=O)N3CCOCC3)cc2OC)ncc1C(F)(F)F` [GNE-7915 (tosylate)] (10 µM) was tested. Which “kinase-Nluc reporter destabilization hit call” value did it give?
Answer: inactive: 0

Question: `Cc1cc(O)c2c(c1)C(=O)c1cc(O)cc(O)c1C2=O` [Emodin] (10 µM) was tested. Which “kinase-Nluc reporter destabilization hit call” value did it give?
Answer: inactive: 0

Question: Which “kinase-Nluc reporter destabilization hit call” value does the source give for `Cc1ccc(C(=O)Nc2ccc(Oc3cc4cnn(C)c4cc3-c3cn[nH]c3)c(F)c2)c(=O)n1-c1ccc(F)cc1` [Merestinib dihydrochloride] (2.5 µM) here?
Answer: inactive: 0

Question: With `C=CC(=O)Nc1cc(C)ccc1Nc1nc(Nc2cc(OC)ncc2C)ncc1C(F)(F)F` (10 µM) as the compound, how does the “kinase-Nluc reporter destabilization hit call” value read?
Answer: inactive: 0

Question: With `Oc1cc(O)c2cc(O)c(-c3cc(O)c(O)c(O)c3)[o+]c2c1` [Delphinidin (chloride)] (10 µM) as the compound, how does the “kinase-Nluc reporter destabilization hit call” value read?
Answer: inactive: 0

Question: With `O=C1NC(=O)/C(=C\c2cccc(C(F)(F)F)c2)S1` (2.5 µM) as the compound, how does the “kinase-Nluc reporter destabilization hit call” value read?
Answer: inactive: 0

Question: For `Cc1nc2sccn2c(=O)c1CCN1CCC(=C(c2ccccc2)c2ccc(F)cc2)CC1` (10 µM), which “kinase-Nluc reporter destabilization hit call” value is on record?
Answer: inactive: 0

Question: `CCc1cc2c(cc1N1CCC(N3CCOCC3)CC1)C(C)(C)c1[nH]c3cc(C#N)ccc3c1C2=O` [Alectinib (Hydrochloride)] (2 µM) was tested. Which “kinase-Nluc reporter destabilization hit call” value did it give?
Answer: inactive: 0

Question: Which “kinase-Nluc reporter destabilization hit call” value does the source give for `FC(F)(c1ccc2ncccc2c1)c1nnc2ccc(-c3ccncc3)nn12` (10 µM) here?
Answer: inactive: 0
